Test results taken from patent US5631230A (priority 1994, dated 1997).
Non-standard residues stand in square brackets, D forms with d. NMeNle = CCCC[C@H](NC)C(=O)O

Test: general procedure: Boc solid-phase peptide synthesis; p-methylbenzhydrylamine (PMBHA) resin, substitution 1.0 mmol/g; DCC/HOBt

Substance	step yield (late stage modification step) [% yield]	step yield (purification step) [% yield]	crude mass (whole synthesis) [mg]	isolated mass (whole synthesis) [mg]
H-Asp-Tyr-N-MeNle-Gly-Trp-N-MeNle-Asp-Phe-NH2 Bis-SO3^θ	33	–	–	–
H-GW[NMeNle]DF-NH2	–	10	600	400
